Reference: patent US9084422B2, “Anthranilamides compositions” (E I DU PONT DE NEMOURS AND COMPANY, priority 2001, dated 2015)
Some of these results come from one statement about several compounds together.

Tests used:
[1] = test system: diamondback moth (Plutella xylostella); test: Test A: control of diamondback moth, foliar spray on radish; type: in vivo; details: sprayed at 50 ppm, neonate larvae, assessed after 6 days
[2] = test system: fall armyworm (Spodoptera frugiperda); test: Test B: control of fall armyworm, foliar spray on corn; type: in vivo; details: sprayed at 50 ppm; corn (maize) plant; 1-day-old larvae; assessed after 6 days

| SMILES | feeding damage (excellent levels of plant protection) [1] [%] | feeding damage (excellent levels of plant protection) [2] [%] |
| --- | --- | --- |
| CN(C)C(=O)c1cc(F)cc(F)c1NC(=O)c1cc(Br)nn1-c1ncccc1Cl [Compound 132] | ≤ 10 | ≤ 10 |
| CN(C)C(=O)c1cc(Cl)cc(F)c1NC(=O)c1cc(Br)nn1-c1ncccc1Cl [Compound 134] | ≤ 10 | ≤ 10 |
